Data reported in the supplement of paper PMC6411743.
± gives the standard deviation of the averaged measurements. This is one part of the list.

The chains behind the UniProt entries cited, without tags or fusion partners. Where a name states a change or a piece, a line headed by the entry shows the natural chain unless it says otherwise.
UniProt P28290: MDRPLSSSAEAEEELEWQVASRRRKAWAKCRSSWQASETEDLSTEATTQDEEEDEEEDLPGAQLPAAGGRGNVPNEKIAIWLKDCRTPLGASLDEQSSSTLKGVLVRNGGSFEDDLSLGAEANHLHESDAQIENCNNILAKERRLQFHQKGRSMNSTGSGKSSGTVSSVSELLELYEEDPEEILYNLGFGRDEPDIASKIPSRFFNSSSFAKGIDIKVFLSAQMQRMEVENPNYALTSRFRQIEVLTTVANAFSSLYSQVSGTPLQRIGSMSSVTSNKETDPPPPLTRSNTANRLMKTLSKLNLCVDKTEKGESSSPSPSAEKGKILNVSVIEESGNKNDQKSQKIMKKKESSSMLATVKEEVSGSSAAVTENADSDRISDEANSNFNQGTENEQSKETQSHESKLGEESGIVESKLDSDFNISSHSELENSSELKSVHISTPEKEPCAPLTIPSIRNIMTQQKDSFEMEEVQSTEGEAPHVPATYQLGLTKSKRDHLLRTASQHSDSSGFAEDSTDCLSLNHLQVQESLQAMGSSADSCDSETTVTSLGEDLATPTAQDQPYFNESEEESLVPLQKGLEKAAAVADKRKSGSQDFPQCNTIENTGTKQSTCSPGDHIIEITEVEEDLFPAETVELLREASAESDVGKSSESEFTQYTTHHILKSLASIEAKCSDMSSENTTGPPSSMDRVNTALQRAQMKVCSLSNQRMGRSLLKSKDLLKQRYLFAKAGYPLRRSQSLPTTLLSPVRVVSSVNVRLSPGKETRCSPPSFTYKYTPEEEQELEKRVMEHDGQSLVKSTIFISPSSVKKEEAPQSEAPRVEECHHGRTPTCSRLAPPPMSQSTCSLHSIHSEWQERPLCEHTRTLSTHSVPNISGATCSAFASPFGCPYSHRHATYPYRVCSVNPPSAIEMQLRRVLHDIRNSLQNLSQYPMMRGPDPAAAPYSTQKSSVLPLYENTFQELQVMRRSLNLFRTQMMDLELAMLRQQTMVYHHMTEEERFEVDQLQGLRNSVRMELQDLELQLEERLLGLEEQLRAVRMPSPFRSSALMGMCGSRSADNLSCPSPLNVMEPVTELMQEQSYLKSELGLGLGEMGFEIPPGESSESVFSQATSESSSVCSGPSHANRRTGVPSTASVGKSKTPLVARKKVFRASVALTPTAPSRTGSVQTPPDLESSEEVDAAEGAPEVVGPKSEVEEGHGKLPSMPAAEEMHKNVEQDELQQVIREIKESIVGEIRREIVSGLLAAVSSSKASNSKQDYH
UniProt Q9Y2W6: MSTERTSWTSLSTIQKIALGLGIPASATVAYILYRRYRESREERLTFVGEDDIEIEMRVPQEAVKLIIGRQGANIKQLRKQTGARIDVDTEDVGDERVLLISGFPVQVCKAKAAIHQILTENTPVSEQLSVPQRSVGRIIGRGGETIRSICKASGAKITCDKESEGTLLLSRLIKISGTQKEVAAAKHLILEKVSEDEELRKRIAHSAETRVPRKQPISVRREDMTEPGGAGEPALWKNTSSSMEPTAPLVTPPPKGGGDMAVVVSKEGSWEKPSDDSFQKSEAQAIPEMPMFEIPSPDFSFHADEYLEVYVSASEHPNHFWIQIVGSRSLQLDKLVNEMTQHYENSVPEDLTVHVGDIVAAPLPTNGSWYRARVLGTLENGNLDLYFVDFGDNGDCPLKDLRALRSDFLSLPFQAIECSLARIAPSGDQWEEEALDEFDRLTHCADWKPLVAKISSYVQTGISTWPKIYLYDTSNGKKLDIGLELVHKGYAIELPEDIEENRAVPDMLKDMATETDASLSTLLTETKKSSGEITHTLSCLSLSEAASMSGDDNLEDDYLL
UniProt Q9Y6R4: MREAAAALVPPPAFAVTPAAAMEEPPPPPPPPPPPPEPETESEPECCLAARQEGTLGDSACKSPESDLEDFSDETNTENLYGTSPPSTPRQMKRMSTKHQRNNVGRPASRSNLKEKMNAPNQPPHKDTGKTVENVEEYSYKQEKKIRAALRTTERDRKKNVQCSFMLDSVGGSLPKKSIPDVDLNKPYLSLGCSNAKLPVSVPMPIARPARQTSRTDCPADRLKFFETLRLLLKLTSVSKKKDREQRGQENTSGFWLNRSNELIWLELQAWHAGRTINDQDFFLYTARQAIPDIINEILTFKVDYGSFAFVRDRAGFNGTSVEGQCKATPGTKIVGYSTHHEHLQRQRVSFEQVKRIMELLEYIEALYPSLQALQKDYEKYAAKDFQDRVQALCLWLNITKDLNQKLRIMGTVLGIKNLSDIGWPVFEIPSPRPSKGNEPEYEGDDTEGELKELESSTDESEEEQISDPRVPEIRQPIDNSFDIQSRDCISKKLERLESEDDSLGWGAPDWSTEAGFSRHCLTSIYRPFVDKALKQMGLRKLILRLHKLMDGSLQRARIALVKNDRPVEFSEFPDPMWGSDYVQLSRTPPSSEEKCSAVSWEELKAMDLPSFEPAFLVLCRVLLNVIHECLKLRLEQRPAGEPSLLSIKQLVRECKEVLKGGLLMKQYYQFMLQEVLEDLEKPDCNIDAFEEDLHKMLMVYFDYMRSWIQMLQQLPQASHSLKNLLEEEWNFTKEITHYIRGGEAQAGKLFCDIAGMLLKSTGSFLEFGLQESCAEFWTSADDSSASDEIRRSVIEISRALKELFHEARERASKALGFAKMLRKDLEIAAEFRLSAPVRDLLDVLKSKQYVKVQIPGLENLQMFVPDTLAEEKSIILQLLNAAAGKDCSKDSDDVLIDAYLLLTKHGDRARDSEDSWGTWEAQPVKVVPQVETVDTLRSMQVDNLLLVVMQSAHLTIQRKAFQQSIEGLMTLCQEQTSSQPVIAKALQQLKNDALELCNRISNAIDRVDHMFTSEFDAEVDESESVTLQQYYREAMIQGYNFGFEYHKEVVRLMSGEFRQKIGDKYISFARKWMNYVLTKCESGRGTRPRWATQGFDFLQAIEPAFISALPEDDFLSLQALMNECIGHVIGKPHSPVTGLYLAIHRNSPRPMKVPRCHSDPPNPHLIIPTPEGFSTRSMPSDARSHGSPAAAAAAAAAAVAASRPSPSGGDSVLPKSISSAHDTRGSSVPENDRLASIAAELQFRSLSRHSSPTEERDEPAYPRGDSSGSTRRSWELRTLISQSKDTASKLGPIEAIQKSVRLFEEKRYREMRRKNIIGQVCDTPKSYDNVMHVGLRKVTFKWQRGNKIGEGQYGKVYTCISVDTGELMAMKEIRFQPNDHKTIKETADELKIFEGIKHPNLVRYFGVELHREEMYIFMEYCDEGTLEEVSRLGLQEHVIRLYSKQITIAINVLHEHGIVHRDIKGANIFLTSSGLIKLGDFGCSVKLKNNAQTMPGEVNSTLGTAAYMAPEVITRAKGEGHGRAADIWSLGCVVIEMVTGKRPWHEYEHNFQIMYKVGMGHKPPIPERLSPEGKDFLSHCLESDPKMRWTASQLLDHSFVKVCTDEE
UniProt Q9UK41: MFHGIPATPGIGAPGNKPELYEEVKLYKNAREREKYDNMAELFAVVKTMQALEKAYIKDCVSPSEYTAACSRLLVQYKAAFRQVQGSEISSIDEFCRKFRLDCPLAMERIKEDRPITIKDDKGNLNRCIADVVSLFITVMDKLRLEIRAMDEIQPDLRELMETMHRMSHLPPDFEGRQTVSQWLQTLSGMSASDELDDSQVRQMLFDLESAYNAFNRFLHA
UniProt Q8NBI5: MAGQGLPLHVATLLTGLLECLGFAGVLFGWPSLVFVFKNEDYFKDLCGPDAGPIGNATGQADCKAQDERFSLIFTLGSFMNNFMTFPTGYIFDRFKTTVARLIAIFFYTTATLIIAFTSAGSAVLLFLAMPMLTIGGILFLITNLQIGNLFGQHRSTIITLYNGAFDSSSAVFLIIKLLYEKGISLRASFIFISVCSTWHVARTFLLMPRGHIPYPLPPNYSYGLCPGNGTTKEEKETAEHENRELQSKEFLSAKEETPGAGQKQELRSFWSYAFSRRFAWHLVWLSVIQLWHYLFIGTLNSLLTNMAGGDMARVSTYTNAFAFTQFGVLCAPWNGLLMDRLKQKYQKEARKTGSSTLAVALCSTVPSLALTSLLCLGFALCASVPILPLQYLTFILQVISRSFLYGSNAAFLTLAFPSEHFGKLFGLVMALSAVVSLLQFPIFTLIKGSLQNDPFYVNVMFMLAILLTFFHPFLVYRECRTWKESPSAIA
UniProt P68400, whole entry, looked up: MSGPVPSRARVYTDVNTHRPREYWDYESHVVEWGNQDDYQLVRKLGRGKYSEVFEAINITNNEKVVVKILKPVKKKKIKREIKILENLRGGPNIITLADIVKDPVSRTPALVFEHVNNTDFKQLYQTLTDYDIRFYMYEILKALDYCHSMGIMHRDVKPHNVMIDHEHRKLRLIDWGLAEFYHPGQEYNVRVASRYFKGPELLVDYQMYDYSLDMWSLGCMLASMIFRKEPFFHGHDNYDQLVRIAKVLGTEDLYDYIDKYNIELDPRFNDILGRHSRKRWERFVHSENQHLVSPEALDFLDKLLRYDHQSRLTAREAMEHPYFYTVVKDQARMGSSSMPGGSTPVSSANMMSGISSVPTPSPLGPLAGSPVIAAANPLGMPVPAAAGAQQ
UniProt Q92989: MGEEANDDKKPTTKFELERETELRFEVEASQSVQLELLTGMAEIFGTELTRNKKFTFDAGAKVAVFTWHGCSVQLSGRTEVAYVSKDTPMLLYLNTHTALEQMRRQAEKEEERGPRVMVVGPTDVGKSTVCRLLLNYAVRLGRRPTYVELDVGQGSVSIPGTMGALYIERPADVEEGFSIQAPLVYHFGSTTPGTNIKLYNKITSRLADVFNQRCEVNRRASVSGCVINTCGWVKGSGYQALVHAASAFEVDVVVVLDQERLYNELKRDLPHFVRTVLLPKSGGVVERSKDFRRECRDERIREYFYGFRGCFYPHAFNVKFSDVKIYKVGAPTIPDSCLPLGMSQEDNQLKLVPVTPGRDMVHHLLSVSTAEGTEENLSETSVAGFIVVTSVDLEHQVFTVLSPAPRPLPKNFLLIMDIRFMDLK
UniProt Q8TEU7: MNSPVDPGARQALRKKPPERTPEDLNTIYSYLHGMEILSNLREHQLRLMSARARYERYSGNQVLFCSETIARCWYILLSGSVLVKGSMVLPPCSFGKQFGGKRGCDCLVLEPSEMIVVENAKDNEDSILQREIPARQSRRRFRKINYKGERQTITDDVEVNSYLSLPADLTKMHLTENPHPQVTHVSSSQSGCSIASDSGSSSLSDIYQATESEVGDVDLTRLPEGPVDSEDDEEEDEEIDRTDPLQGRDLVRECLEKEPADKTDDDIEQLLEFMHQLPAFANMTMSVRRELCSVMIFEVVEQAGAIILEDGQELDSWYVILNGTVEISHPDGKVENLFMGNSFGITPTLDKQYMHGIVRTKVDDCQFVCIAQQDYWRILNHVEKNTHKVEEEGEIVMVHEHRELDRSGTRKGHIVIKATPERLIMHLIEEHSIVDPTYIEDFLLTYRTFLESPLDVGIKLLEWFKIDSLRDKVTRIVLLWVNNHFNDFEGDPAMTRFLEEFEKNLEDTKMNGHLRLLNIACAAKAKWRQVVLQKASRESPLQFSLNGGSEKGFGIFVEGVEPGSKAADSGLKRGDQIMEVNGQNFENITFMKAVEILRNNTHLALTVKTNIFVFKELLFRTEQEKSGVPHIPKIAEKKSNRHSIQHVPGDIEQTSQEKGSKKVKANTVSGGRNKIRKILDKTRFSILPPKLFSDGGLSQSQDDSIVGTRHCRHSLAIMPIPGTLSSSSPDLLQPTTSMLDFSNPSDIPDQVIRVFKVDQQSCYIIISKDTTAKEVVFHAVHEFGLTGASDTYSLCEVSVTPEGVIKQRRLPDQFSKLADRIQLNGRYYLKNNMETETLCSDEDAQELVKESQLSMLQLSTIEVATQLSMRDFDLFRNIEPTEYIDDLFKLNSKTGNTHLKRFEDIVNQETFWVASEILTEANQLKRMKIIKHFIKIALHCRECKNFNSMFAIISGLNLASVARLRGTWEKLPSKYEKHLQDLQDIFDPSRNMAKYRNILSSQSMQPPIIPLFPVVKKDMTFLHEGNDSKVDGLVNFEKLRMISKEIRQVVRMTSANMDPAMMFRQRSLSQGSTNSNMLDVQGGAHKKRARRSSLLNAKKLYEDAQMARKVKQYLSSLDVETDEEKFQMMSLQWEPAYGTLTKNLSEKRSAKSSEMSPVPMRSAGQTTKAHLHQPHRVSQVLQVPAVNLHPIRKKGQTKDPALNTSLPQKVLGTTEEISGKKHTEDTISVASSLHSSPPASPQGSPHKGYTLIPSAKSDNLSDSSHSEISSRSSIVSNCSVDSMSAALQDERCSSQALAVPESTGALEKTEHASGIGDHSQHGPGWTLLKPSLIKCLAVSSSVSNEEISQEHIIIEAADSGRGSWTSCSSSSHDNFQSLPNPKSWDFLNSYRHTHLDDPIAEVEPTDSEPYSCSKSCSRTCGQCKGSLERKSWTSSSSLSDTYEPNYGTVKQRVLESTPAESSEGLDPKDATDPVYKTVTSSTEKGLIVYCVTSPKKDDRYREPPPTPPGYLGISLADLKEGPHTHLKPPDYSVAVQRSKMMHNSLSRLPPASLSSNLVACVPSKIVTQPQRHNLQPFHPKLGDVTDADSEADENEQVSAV

Compound: Nc1nc2c(ncn2[C@@H]2O[C@H](COP(=O)(O)OP(=O)(O)OP(=O)(O)O)[C@@H](O)[C@H]2O)c(=O)[nH]1 [guanosine triphosphate]
Test: NP40-soluble protein abundance relative to vehicle (solubility fold change) (ratio); higher = more soluble protein in presence of GTP
Summary of the method: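 Each value is a fold change relative to the detergent-processed vehicle, calculated per replicate from vsn-normalised intensities. Jurkat crude lysate received eight concentrations (0.1 to 10 mM) for 10 min at room temperature and 3 min at 37 °C, then was solubilised in 0.8% NP40 with benzonase (60 min, 4 °C). The ultracentrifuged supernatant was TMT-labelled and run by LC-MS/MS in three independent experiments.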

Target: E7EUL7 and related entries (UniProt P28290)
- NP40-soluble protein abundance (concentration: 0.1mM): 1.11 ± 0.24
- NP40-soluble protein abundance (concentration: 0.5mM): 1.18 ± 0.27
- NP40-soluble protein abundance (concentration: 1mM): 1.14 ± 0.2
- NP40-soluble protein abundance (concentration: 2mM): 1.11 ± 0.062
- NP40-soluble protein abundance (concentration: 4mM): 1.32 ± 0.36
- NP40-soluble protein abundance (concentration: 6mM): 1.32 ± 0.37
- NP40-soluble protein abundance (concentration: 8mM): 1.45 ± 0.37
- NP40-soluble protein abundance (concentration: 10mM): 1.39 ± 0.28

Target: F6TB26 and related entries (UniProt Q9Y2W6)
- NP40-soluble protein abundance (concentration: 0.1mM): 0.988 ± 0.093
- NP40-soluble protein abundance (concentration: 0.5mM): 0.99 ± 0.1
- NP40-soluble protein abundance (concentration: 1mM): 0.971 ± 0.11
- NP40-soluble protein abundance (concentration: 2mM): 0.976 ± 0.14
- NP40-soluble protein abundance (concentration: 4mM): 0.923 ± 0.091
- NP40-soluble protein abundance (concentration: 6mM): 0.944 ± 0.11
- NP40-soluble protein abundance (concentration: 8mM): 0.959 ± 0.091
- NP40-soluble protein abundance (concentration: 10mM): 0.954 ± 0.076

Target: F8W9P4 and related entries (UniProt O00329)
- NP40-soluble protein abundance (concentration: 0.1mM): 1.08 ± 0.08
- NP40-soluble protein abundance (concentration: 0.5mM): 1.06 ± 0.11
- NP40-soluble protein abundance (concentration: 1mM): 0.948 ± 0.05
- NP40-soluble protein abundance (concentration: 2mM): 1 ± 0.09
- NP40-soluble protein abundance (concentration: 4mM): 0.998 ± 0.077
- NP40-soluble protein abundance (concentration: 6mM): 0.937 ± 0.041
- NP40-soluble protein abundance (concentration: 8mM): 0.911 ± 0.051
- NP40-soluble protein abundance (concentration: 10mM): 0.902 ± 0.085

Target: E7EQV9 and related entries (UniProt P61313)
- NP40-soluble protein abundance (concentration: 0.1mM): 1.04 ± 0.065
- NP40-soluble protein abundance (concentration: 0.5mM): 1.09 ± 0.14
- NP40-soluble protein abundance (concentration: 1mM): 1.08 ± 0.22
- NP40-soluble protein abundance (concentration: 2mM): 1.03 ± 0.3
- NP40-soluble protein abundance (concentration: 4mM): 0.902 ± 0.3
- NP40-soluble protein abundance (concentration: 6mM): 0.842 ± 0.25
- NP40-soluble protein abundance (concentration: 8mM): 0.571 ± 0.19
- NP40-soluble protein abundance (concentration: 10mM): 0.897 ± 0.28

Target: F5H4R1 and related entries (UniProt Q9Y6R4)
- NP40-soluble protein abundance (concentration: 0.1mM): 1.08 ± 0.07
- NP40-soluble protein abundance (concentration: 0.5mM): 1.09 ± 0.11
- NP40-soluble protein abundance (concentration: 1mM): 1 ± 0.089
- NP40-soluble protein abundance (concentration: 2mM): 1.05 ± 0.15
- NP40-soluble protein abundance (concentration: 4mM): 1.06 ± 0.11
- NP40-soluble protein abundance (concentration: 6mM): 0.97 ± 0.12
- NP40-soluble protein abundance (concentration: 8mM): 0.964 ± 0.064
- NP40-soluble protein abundance (concentration: 10mM): 0.98 ± 0.12

Target: E9PQR7 and related entries (UniProt Q9UK41)
- NP40-soluble protein abundance (concentration: 0.1mM): 0.87 ± 0.14
- NP40-soluble protein abundance (concentration: 0.5mM): 0.859 ± 0.092
- NP40-soluble protein abundance (concentration: 1mM): 1.04 ± 0.12
- NP40-soluble protein abundance (concentration: 2mM): 1.05 ± 0.052
- NP40-soluble protein abundance (concentration: 4mM): 0.992 ± 0.086
- NP40-soluble protein abundance (concentration: 6mM): 1.02 ± 0.073
- NP40-soluble protein abundance (concentration: 8mM): 0.937 ± 0.18
- NP40-soluble protein abundance (concentration: 10mM): 1.07 ± 0.16

Target: E9PS74 and related entries (UniProt Q8NBI5)
- NP40-soluble protein abundance (concentration: 0.1mM): 1.06 ± 0.034
- NP40-soluble protein abundance (concentration: 0.5mM): 0.986 ± 0.079
- NP40-soluble protein abundance (concentration: 1mM): 0.986 ± 0.083
- NP40-soluble protein abundance (concentration: 2mM): 0.917 ± 0.095
- NP40-soluble protein abundance (concentration: 4mM): 0.993 ± 0.1
- NP40-soluble protein abundance (concentration: 6mM): 0.941 ± 0.054
- NP40-soluble protein abundance (concentration: 8mM): 1.03 ± 0.039
- NP40-soluble protein abundance (concentration: 10mM): 0.865 ± 0.056

Target: F8W0Q9 and related entries (UniProt Q8NEY8)
- NP40-soluble protein abundance (concentration: 0.1mM): 1.01 ± 0.022
- NP40-soluble protein abundance (concentration: 0.5mM): 1.08 ± 0.019
- NP40-soluble protein abundance (concentration: 1mM): 1.19 ± 0.058
- NP40-soluble protein abundance (concentration: 2mM): 1.28 ± 0.096
- NP40-soluble protein abundance (concentration: 4mM): 1.41 ± 0.18
- NP40-soluble protein abundance (concentration: 6mM): 1.45 ± 0.2
- NP40-soluble protein abundance (concentration: 8mM): 1.63 ± 0.22
- NP40-soluble protein abundance (concentration: 10mM): 1.77 ± 0.42

Target: F8VWS0 and related entries (UniProt P05388)
- NP40-soluble protein abundance (concentration: 0.1mM): 0.877 ± 0.088
- NP40-soluble protein abundance (concentration: 0.5mM): 0.897 ± 0.048
- NP40-soluble protein abundance (concentration: 1mM): 0.883 ± 0.076
- NP40-soluble protein abundance (concentration: 2mM): 0.846 ± 0.11
- NP40-soluble protein abundance (concentration: 4mM): 0.811 ± 0.13
- NP40-soluble protein abundance (concentration: 6mM): 0.776 ± 0.13
- NP40-soluble protein abundance (concentration: 8mM): 0.677 ± 0.096
- NP40-soluble protein abundance (concentration: 10mM): 0.788 ± 0.13

Target: E7EU96 and related entries (UniProt P68400)
- NP40-soluble protein abundance (concentration: 0.1mM): 1 ± 0.038
- NP40-soluble protein abundance (concentration: 0.5mM): 1.05 ± 0.05
- NP40-soluble protein abundance (concentration: 1mM): 0.969 ± 0.036
- NP40-soluble protein abundance (concentration: 2mM): 0.98 ± 0.031
- NP40-soluble protein abundance (concentration: 4mM): 1.01 ± 0.038
- NP40-soluble protein abundance (concentration: 6mM): 1.01 ± 0.056
- NP40-soluble protein abundance (concentration: 8mM): 1.01 ± 0.043
- NP40-soluble protein abundance (concentration: 10mM): 0.987 ± 0.032

Target: E9PL17 and related entries (UniProt Q92989)
- NP40-soluble protein abundance (concentration: 0.1mM): 1.13 ± 0.11
- NP40-soluble protein abundance (concentration: 0.5mM): 1.19 ± 0.17
- NP40-soluble protein abundance (concentration: 1mM): 1.07 ± 0.09
- NP40-soluble protein abundance (concentration: 2mM): 1.13 ± 0.15
- NP40-soluble protein abundance (concentration: 4mM): 1.11 ± 0.14
- NP40-soluble protein abundance (concentration: 6mM): 1.06 ± 0.13
- NP40-soluble protein abundance (concentration: 8mM): 1.01 ± 0.039
- NP40-soluble protein abundance (concentration: 10mM): 1.07 ± 0.093

Target: E9PCH4 and related entries (UniProt Q8TEU7+E9PCH4)
- NP40-soluble protein abundance (concentration: 0.1mM): 0.967 ± 0.021
- NP40-soluble protein abundance (concentration: 0.5mM): 0.9825 ± 0.0063
- NP40-soluble protein abundance (concentration: 1mM): 0.968 ± 0.023
- NP40-soluble protein abundance (concentration: 2mM): 0.96 ± 0.02
- NP40-soluble protein abundance (concentration: 4mM): 0.981 ± 0.016
- NP40-soluble protein abundance (concentration: 6mM): 0.969 ± 0.038
- NP40-soluble protein abundance (concentration: 8mM): 1.0058 ± 0.00029
- NP40-soluble protein abundance (concentration: 10mM): 0.9592 ± 0.0034
